The text below walks through data of patent EP3171885B1, “PEPTIDE HYDROLYSATE OF SNAILS, PEPTIDE FRACTIONS, PRODUCTION METHOD, USE AND COMPOSITIONS FOR INHIBITING THE ANGIOTENSIN CONVERTING ENZYME” (Drevet, Pascal, priority 2014, dated 2016).

By UniProt entry, the sequences of proteins in these tests, tags left out. Residues count along the entry.
UniProt P12821, 30-1306: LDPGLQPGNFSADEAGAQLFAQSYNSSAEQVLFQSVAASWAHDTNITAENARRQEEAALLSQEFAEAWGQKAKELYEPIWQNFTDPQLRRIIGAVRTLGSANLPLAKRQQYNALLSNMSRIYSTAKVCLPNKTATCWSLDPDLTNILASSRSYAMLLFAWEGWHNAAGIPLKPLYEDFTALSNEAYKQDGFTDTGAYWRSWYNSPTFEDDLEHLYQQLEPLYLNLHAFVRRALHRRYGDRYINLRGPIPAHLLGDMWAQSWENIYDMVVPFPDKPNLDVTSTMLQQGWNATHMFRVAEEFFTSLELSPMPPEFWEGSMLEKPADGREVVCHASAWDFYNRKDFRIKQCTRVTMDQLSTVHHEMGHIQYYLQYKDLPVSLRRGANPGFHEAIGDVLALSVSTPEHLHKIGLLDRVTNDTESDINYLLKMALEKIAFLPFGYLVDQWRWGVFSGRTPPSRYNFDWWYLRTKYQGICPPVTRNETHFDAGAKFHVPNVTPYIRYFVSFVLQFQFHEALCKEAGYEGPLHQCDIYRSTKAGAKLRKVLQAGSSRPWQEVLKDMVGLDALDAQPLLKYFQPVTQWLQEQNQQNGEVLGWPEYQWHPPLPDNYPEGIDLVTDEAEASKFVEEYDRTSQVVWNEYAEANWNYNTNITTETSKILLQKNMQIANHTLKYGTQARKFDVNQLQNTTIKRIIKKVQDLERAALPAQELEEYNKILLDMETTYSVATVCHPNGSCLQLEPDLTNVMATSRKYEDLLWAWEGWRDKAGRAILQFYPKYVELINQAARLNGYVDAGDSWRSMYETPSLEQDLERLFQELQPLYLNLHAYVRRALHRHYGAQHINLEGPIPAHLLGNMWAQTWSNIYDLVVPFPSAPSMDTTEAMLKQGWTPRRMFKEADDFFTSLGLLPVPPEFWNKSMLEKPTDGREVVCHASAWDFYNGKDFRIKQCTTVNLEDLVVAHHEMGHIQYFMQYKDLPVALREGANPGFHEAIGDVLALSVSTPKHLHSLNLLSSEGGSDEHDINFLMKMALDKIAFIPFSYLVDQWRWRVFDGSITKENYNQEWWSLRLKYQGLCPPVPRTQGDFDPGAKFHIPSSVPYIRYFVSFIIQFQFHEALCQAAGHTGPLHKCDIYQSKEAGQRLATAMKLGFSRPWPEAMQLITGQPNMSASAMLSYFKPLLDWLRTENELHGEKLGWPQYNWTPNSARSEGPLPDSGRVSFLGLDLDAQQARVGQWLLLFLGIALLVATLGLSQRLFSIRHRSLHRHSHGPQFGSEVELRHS

As a reminder, the IC50 is the concentration that inhibits the measured activity by half. Higher therefore signals weaker potency.

For this assay, the target named is enzyme de conversion de l'angiotensine (ECA) (Homo sapiens, UniProt P12821). Put plainly: biochemical. The settings on record: substrate HHL 5 mM, 37°C, 30 minutes, sodium borate buffer pH 8,3, detection at 228 nm. The method, then: Brièvement, cette méthode repose sur l'hydrolyse du substrat Hippuryl-L-Histidyl-L-Leucine (HHL) par l'ECA pour produire de l'acide hippurique (HA) et de l'Histydil-Leucine. Après incubation à 37°C pendant 30 minutes dans du tampon borate de sodium pH 8,3, la réaction est arrêtée par addition de HCI. La séparation du substrat HHL et du produit HA est réalisé par chromatographie liquide haute pression en phase inversée (RP-HPLC) sur une colonne C18 (Kinetex). L'élution se fait par un mélange d'eau (75% v/v) et d'acétonitrile (25% V/V).
La comparaison entre la concentration de HA produite pour chaque concentration d'échantillon avec celle obtenue sans addition de peptide permet la détermination de l'IC50.
A titre de témoin positif, le captopril est également testé en parallèle de l'hydrolysat, des fractions et des peptides. Le témoin négatif est le substrat HHL seul, sans ECA, dilué dans du tampon borate pH 8,3. L'échantillon est le peptide, la fraction ou l'hydrolysat total à tester.
Le pourcentage d'inhibition de l'ECA est calculé selon la formule suivante : Pourcentage d'inhibition ECA (%) = (ASCHA ([…])−ASCHA (Echantillon))/(ASCHA ([…])−ASCHA (HHL)) × 100 [formula]

For `N[C@@H](Cc1ccc(O)cc1)C(=O)NCC(=O)O` [YG, Tyrosine-Glycine], the IC50 is 303 µM.
